Where “and” joins values, the source holds several entries; their conditions need not be identical. Identical values can stand only once. Out of some 340,000 compounds screened, about 4,500 (1.3%) were called active. Inconclusive results, whose numbers are uncertain, are shown with a selection of clear calls. Calls come from the whole dose curve; as a rule, active = well fitted inhibition curve with a large enough effect; inconclusive = small, poorly fitted or top-dose-only effect, or another doubt; inactive = no such curve, though single readings can be large or run the other way. Where the call is inconclusive, the potency comes from a doubtful curve fit.
target: DNA polymerase beta (Homo sapiens) (UniProt P06746); assay: qHTS Assay for Inhibitors of DNA Polymerase Beta; settings: Pol beta primer extension/strand displacement, fluorescence kinetic; activity change, negative = inhibition: at 114 µM (top of the series)
Method in brief: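 Pol beta (10 nM) was preincubated with compound for 15 min at room temperature. The reaction was then started with 50 nM substrate and read immediately and after a further 10 min at room temperature.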
% is set by controls: 0 for no effect and ±100 for the full control effect; potency is the fitted concentration of half-maximal effect.

| SMILES | Potency | activity change, negative = inhibition |
| --- | --- | --- |
| CCn1c(CSc2nc3ccccc3s2)nnc1SCC(=O)c1ccc(O)c(O)c1 | active: 4.47 µM | – |
| CCOC(=O)C1(Cc2ccccc2C)CCCN(C(=O)c2ccc(CSC)o2)C1 (configuration not stated) | inactive | – |
| CCOC(=O)C1=C(N)n2c(s/c(=C\c3ccco3)c2=O)=C(C(=O)OCC)C1c1ccco1 (configuration not stated) | inconclusive: 7.94 µM [inhibitor, full curve, poor fit] | – |
| CC(C)CC(NC(=O)c1ccccc1)C(=O)OCC(=O)Nc1ccc(Br)cn1 (configuration not stated) | inconclusive: 89.1 µM [inhibitor, single point] | – |
| O=C1CC(c2ccco2)CC(O)=C1C=Nc1ccc(Br)cc1 (configuration not stated) | inconclusive: 56.2 µM [inhibitor, partial curve] | – |
| Cc1ccc(OCCSc2nc3ccccc3n2CC(=O)N2CCCCC2)cc1C | inactive | – |
| O=C(/C=C/c1ccc(OC(F)F)cc1)OCC(=O)N1CCN(C(=O)c2ccco2)CC1 | inconclusive: 35.5 µM [inhibitor, full curve, poor fit] | – |
| C/C(=C\C(=O)c1ccc(F)cc1)NCc1ccc2c(c1)OCO2 | inconclusive: 2.82 µM [inhibitor, full curve] | – |
| COc1ccc(/C=C(\C#N)C(=O)c2c(C)[nH]c3ccccc23)cc1OC | inconclusive: 79.4 µM [inhibitor, single point] | – |
| O=C(NCc1ccc(Cl)cc1)C1(c2cccs2)CCOCC1 | inconclusive: 89.1 µM [inhibitor, single point] | – |
| COc1ccc(-c2noc(-c3cc(C(C)C)[nH]n3)n2)cc1 | inconclusive: 79.4 µM [inhibitor, single point] | – |
| O=C(COC(=O)c1cc(S(=O)(=O)NCc2ccccc2)ccc1O)NCc1ccccc1 | inconclusive: 44.7 µM [inhibitor, partial curve, poor fit] | – |
| Cc1cc(=O)[nH]c(N/N=C/c2c(O)n(-c3ccccc3)c(=O)c3ccccc23)n1 | active: 44.7 µM | – |
| CCN1CCN(c2nc(Nc3ccc(NC(C)=O)cc3)nc(Nc3ccc(NC(C)=O)cc3)n2)CC1 | – | inconclusive: -78.3% [inhibitor] |
| Cc1c(NC(=O)CNCc2ccc3c(c2)OCO3)c(=O)n(-c2ccccc2)n1C | – | inconclusive: -31.9% [inhibitor] |
| CCN(CC)S(=O)(=O)c1cccc(C(=O)Nc2ccccc2C(=O)N2CCOCC2)c1 | inconclusive: 0.141 µM [inhibitor, full curve, poor fit] | – |
| C=CCn1c(SCc2ccc(C#N)cc2)nnc1-c1ccc(C)cc1 | inconclusive: 0.447 µM [inhibitor, full curve, poor fit] | – |
| CCCC(=O)Nc1sc2c(c1C(=O)OC)C(C(=O)OC)CC2 (configuration not stated) | inactive | – |
| O=C(Nc1cc([N+](=O)[O-])ccc1O)c1ccc2c(c1)C(=O)N(Cc1ccco1)C2=O | inactive | – |
| Cc1ccc(NC(=O)Nc2ccc3c(c2)CCC3)cc1C | inconclusive: 31.6 µM [inhibitor, single point] | – |
| Cc1ccc2nc(CSc3nnc(Nc4ccccc4F)s3)cc(=O)n2c1 | active: 22.4 µM | – |
| CC(=O)O[C@H]1C2OC(=O)C(C)=C2[C@@H]2OC(=O)[C@]3(CCC4OC41C)OC23 (some centres not stated) | inactive | – |
| COc1ccc(N(CC(=O)N/N=C/c2ccc(F)cc2)S(=O)(=O)c2ccccc2)cc1 | inconclusive: 25.1 µM [inhibitor, single point] | – |

| SMILES | Potency | activity change, negative = inhibition |
| --- | --- | --- |
| COc1ccc(C(=O)NCC(=O)N/N=C/c2cn[nH]c2-c2ccccc2)cc1 | inconclusive: 100 µM [inhibitor, single point] | – |
| CCOCCc1nn2c(=O)cc(COC(=O)c3ccc(NC(=O)c4ccc(F)cc4)cc3)nc2s1 | inactive | – |
| COc1cccc(/C=C/C(=O)OCC(=O)NCCC2=CCCCC2)c1 | inactive | – |
| COc1cc(/C=C(\C#N)C(=O)NCC2CCCO2)ccc1OCC(N)=O (configuration not stated) | inconclusive: 1.26 µM [inhibitor, full curve, poor fit] | – |
| C#CCn1c(=NC(=O)CSC(C)=O)sc2cc(F)ccc21 | inconclusive: 79.4 µM [inhibitor, single point] | – |
| COc1ccc(OCCSc2nnc(-c3ccccc3)n2N)cc1 | inconclusive: 89.1 µM [inhibitor, single point] | – |
| Cc1cc(C)c2oc(C(=O)Nc3nc4ccc(Cl)cc4s3)cc(=O)c2c1 | inactive | – |
| CCN(C(=O)Cc1cccs1)c1nnc(-c2cc(OC)c(OC)c(OC)c2)s1 | inconclusive: 70.8 µM [inhibitor, single point] | – |
| COc1cccc(NS(=O)(=O)c2ccc3[nH]cc(C(=O)NCCc4ccc(C)cc4)c(=O)c3c2)c1 | inconclusive: 89.1 µM [inhibitor, single point] | – |
| Cc1nn(Cc2cccc(C(=O)NC(C)c3ccc(C(C)(C)C)cc3)c2)c(C)c1[N+](=O)[O-] (configuration not stated) | inconclusive: 56.2 µM [inhibitor, partial curve] | – |
| O=C(N/N=C/c1ccc([N+](=O)[O-])cc1)c1c[nH]c2ccccc12 | inconclusive: 12.6 µM [inhibitor, full curve] | – |
| N=c1c(S(=O)(=O)c2ccc(Br)cc2)cc2c(=O)n3ccccc3nc2n1C1CCCC1 | inconclusive: 0.112 µM [inhibitor, full curve] | – |
| COc1ccc(NS(=O)(=O)c2ccc(N3CCOCC3)c(NC(=O)c3ccccc3Br)c2)cc1 | inconclusive: 89.1 µM [inhibitor, single point] | – |
| Cc1ccc2oc(C(=O)Nc3ccc(S(=O)(=O)Nc4ncccn4)cc3)cc(=O)c2c1 | inactive | – |
| CN(C)S(=O)(=O)N(CC(=O)NCCSc1ccc(Cl)cc1)c1ccccc1 | active: 22.4 µM | – |
| O=C(Nc1ccc(S(=O)(=O)Nc2ncccn2)cc1)C1COc2ccccc2O1 (configuration not stated) | inconclusive: 11.2 µM [inhibitor, partial curve, poor fit] | – |
| Nn1c(C2CCC2)nc2cc(Cl)ccc2c1=O | inactive | – |
| CC1CC1C(=O)Nc1nc(-c2cccs2)c(-c2cccs2)s1 (configuration not stated) | inactive | – |
| O=C(NCc1cccs1)c1ccc(CS(=O)Cc2cccc(Cl)c2)o1 (configuration not stated) | inconclusive: 79.4 µM [inhibitor, single point] | – |
| Fc1ccc(N2N=C(c3cccs3)CC2c2ccccc2)cc1 (configuration not stated) | inactive | – |
| Cc1sc2nc(CSc3nc4ccccc4s3)[nH]c(=O)c2c1C | active: 39.8 µM | – |
| Cc1ccc(S(=O)(=O)c2ccc(Cl)cc2)cc1S(=O)(=O)N(C)CC(=O)O | inconclusive: 25.1 µM [inhibitor, single point] | – |

| SMILES | Potency | activity change, negative = inhibition |
| --- | --- | --- |
| COc1ccc(C2=NN(c3nc(-c4ccccc4)c(CC(=O)O)s3)C(c3ccco3)C2)cc1 (configuration not stated) | active: 22.4 µM | – |
| CC(C)C12CCC(C(=O)O)C(C1)C(=O)O2 (configuration not stated) | inconclusive: 14.1 µM [inhibitor, partial curve, poor fit] | – |
| O=C(Cn1ncc2c3ccccc3n(Cc3cccc(Cl)c3)c2c1=O)N1CCCCC1 | inconclusive: 25.1 µM [inhibitor, full curve] | – |
| CN(C(=O)NCc1noc2ccccc12)c1cccc(Cl)c1 | inactive | – |
| CC(C)Cc1c(O)nc(SCC(=O)N2CCCCCC2)[nH]c1=O | inactive | – |
| Cc1ccc(CN2CC(C(=O)Nc3ccc4c(C)cc(=O)oc4c3)CC2=O)cc1 (configuration not stated) | inconclusive: 39.8 µM [inhibitor, single point] | – |
| O=C(CSc1nc2c(cnn2-c2ccccc2)c(=O)[nH]1)c1ccc(Cl)cc1 | active: 5.01 µM | – |
| Cc1ccccc1N=C1SC(CC(=O)Nc2ccc3ccccc3c2)C(=O)N1Cc1ccccn1 (configuration not stated) | inconclusive: 39.8 µM [inhibitor, single point] | – |
| COC(=O)C1=COC(OC2OC(CO)C(O)C(O)C2O)C2C1C=CC2(O)CO (configuration not stated) | active: 20 µM | – |
| Cc1ccc(Cl)cc1N1CCN(C(=O)c2ccc(C)c(-n3c(C)nc4cccnc43)c2)CC1 | inactive | – |
| CCOC(=O)C1=C(O)/C(=C/c2ccc(CNC(=O)C(=O)Nc3ccc(C)cc3)o2)N=C1C | inconclusive: 11.2 µM [inhibitor, full curve, poor fit] | – |
| Cc1cc(C(F)F)n2nc(C(=O)Nc3ccc(F)c(Cl)c3)nc2n1 | inactive | – |
| O=C1OC2(CCCCC2)CC2=C1C1O[C@](c3ccsc3)(Cc3c1ccc1ccccc31)O2 | active: 10 µM | – |
| COc1ccc(NC(=O)CSC2=Nc3ccccc3C3=NC(CC(=O)NCc4ccc(F)cc4)C(=O)N23)cc1 (configuration not stated) | inactive | – |
| CCN(CC)CCn1c(SCC(=O)Nc2cccc(OC)c2)nc2c(sc3ccccc32)c1=O | inconclusive: 89.1 µM [inhibitor, single point] | – |
| C#CCOCCOCCOCCNc1nc(N2CCN(C(=O)[C@H]([C@@H](C)CC)n3cc([C@@H](N)CC(C)C)nn3)CC2)nc(N2CCN(C(=O)[C@H](Cc3cc4ccccc4[nH]3)n3cc([C@@H](N)Cc4ccc(O)cc4)nn3)CC2)n1 | inactive | – |
| CCN(CCCNC(=O)c1cc2cc3ccc(OC)cc3nc2s1)c1ccccc1 | active: 11.2 µM | – |
| CCc1ccc(NC(=O)c2ccc3c(c2)C(=O)N(Cc2ccco2)C3=O)cc1 | active: 20 µM | – |
| Cc1ccc(C(=O)Nc2nc(-c3cc(Cl)sc3Cl)cs2)cc1 | inconclusive: 17.8 µM [inhibitor, partial curve] | – |
| CCOC(=O)C1=C(O)/C(=C/c2ccc(OCC(=O)O)c(OCC)c2)SC1=Nc1ccccc1 | inactive | – |
| O=S1(=O)c2ccccc2N=NN1Cc1cc(Cl)cc(Cl)c1 | inconclusive: 8.91 µM [inhibitor, full curve, poor fit] | – |

From PubChem BioAssay AID485314 (National Center for Advancing Translational Sciences (NCATS), 2010)
